Laboratory results published in publication PMC5896957.
Results are given in words; binding and its absence hold for the method and conditions named. In cells and extracts the contact can be indirect.

Protein sequences, listed by entry. Tags and fused reporters are not part of them. Lines headed by an entry give the natural chain unless they say otherwise; changes in a name come on top.
UniProt Q9BZI7: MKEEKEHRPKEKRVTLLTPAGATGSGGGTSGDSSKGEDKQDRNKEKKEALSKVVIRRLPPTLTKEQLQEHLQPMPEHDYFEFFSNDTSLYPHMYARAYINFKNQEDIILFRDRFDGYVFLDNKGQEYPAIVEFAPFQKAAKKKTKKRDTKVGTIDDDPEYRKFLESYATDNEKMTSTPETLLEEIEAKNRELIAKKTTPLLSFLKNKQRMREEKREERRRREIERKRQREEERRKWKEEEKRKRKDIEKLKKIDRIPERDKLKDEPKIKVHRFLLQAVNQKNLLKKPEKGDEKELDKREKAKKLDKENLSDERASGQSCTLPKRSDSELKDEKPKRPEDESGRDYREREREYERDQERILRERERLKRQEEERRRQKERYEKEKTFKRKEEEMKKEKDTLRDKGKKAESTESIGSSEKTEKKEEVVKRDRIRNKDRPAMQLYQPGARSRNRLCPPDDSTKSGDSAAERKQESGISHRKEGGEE
UniProt Q9Y2F5: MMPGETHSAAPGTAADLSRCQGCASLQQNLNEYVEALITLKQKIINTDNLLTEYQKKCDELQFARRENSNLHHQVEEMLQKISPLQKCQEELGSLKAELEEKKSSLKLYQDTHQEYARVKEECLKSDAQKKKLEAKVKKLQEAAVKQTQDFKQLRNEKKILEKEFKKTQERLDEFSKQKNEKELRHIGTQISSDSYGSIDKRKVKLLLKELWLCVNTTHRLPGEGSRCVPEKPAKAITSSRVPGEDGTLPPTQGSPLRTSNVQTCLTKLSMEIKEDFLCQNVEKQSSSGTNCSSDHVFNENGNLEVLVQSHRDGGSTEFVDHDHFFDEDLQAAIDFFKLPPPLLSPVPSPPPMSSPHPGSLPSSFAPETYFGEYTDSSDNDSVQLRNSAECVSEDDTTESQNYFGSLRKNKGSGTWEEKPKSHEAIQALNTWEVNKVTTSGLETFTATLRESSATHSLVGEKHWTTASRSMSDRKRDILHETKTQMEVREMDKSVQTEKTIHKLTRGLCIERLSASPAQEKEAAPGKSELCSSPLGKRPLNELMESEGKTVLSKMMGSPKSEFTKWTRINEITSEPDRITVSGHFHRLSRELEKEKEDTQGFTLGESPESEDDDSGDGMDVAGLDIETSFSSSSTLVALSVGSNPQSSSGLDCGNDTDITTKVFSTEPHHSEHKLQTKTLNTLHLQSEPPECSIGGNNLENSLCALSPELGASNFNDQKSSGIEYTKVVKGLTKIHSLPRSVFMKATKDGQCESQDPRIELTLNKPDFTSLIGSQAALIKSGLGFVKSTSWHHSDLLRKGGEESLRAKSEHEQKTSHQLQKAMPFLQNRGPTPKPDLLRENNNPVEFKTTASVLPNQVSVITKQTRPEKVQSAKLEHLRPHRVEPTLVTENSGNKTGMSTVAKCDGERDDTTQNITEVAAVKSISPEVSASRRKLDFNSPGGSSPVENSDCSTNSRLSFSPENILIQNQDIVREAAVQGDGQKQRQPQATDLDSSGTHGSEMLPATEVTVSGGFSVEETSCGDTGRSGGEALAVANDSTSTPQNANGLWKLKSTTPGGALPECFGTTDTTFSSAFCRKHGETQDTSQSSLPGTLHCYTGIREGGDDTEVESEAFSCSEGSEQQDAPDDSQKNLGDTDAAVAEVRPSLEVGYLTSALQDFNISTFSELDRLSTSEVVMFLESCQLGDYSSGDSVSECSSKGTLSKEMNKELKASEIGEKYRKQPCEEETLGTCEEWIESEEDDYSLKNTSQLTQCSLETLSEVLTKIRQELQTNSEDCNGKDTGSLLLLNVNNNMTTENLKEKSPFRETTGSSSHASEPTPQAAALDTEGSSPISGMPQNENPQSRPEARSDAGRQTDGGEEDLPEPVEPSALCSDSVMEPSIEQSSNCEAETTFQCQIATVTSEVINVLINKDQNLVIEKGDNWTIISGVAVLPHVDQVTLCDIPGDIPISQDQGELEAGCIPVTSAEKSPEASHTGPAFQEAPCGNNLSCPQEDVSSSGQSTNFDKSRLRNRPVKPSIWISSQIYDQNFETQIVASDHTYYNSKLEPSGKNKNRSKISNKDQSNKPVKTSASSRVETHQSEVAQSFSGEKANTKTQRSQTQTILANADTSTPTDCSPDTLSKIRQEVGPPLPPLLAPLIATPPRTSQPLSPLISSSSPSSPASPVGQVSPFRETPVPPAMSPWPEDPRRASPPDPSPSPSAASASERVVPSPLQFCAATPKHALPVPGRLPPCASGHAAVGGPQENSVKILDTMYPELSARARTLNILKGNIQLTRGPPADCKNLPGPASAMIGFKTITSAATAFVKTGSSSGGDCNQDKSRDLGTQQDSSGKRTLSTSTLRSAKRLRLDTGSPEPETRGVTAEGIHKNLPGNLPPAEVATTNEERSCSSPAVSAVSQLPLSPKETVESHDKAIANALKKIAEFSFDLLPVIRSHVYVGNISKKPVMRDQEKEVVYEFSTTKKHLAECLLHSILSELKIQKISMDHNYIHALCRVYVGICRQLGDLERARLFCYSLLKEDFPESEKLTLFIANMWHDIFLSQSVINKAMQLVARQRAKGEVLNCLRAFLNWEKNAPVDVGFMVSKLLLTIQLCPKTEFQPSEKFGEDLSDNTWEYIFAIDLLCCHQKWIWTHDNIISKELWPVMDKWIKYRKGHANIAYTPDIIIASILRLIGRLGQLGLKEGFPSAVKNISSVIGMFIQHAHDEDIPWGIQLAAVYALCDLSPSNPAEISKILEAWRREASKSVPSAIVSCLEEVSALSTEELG

Target: Overexpressed 3XMYC-UPF3B lacking the EJC-binding domain (human) (UniProt Q9BZI7)
Assay: co-IP; anti-myc IP from HEK-293 lysates overexpressing 3Xmyc-tagged UPF3B constructs; immunoblot

## ICE1 (interactor of little elongation complex ELL subunit 1) (from UniProt Q9Y2F5 1-2266)
  binding: no binding
